# Source: PubChem BioAssay AID485298 (National Center for Advancing Translational Sciences (NCATS), 2010)
# The whole screen tested about 320,000 compounds, of which about 740 (0.23%) were called active. The inconclusive results got no clear call from the source; some entries with a clear call stand among them for comparison. The call rests on the fitted dose curve; in most records, active means well fitted activation curve with a large enough effect; inconclusive means small, poorly fitted or top-dose-only effect; inactive means no such curve, though single readings can be large or run the other way. A potency beside an inconclusive call is a rough fit, not a confirmed value.
# Assay: qHTS Assay for Small Molecule Inhibitors of Mitochondrial Division or Activators of Mitochondrial Fusion; further: nearly all actives have a fitted effect of over 45% in size
# Conditions: S. cerevisiae fusion-defective mutant growth rescue, CellTiterGlo 48 h; series mostly up to 46.1 µM
# Procedure, shortened: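 Luminescent cell viability in 1536-well qHTS format served as the measure of rescued growth in ts fusion-mutant S. cerevisiae cultured on non-fermentable YPEG for 48 hours at 37C.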
# Potency means the concentration at half of the fitted maximal effect.
row,Structure (SMILES),Potency
1,O=c1[nH]cnc2c1sc1nc(C(F)F)cc(-c3ccccc3)c12,inactive
2,O=C(Nc1nc(COc2ccccc2)cs1)C12CC3CC(CC(C3)C1)C2,"inconclusive: 14.1 µM [activator, partial curve]"
3,CN(CC(=O)Nc1ccc(F)cc1)C(=O)CCc1ccccc1,"inconclusive: 0.562 µM [activator, full curve, poor fit]"
4,O=C(Nc1nnc(-c2ccc3c(c2)CCCC3)o1)c1ccccc1,inactive
5,Cc1nc(-c2ccc(NC(=O)Cc3ccccc3)cc2)cs1,"inconclusive: 0.562 µM [activator, full curve, poor fit]"
6,COc1cc(Cl)c(C)cc1NC(=O)c1cccc(OC)c1OC,"inconclusive: 11.2 µM [activator, partial curve]"
7,CCOc1ccccc1N(C)C(=O)c1cc2c(=O)n(CC)c3ccccc3c2s1,"inconclusive: 15.8 µM [activator, partial curve]"
8,CCN(CC(F)(F)C(F)F)S(=O)(=O)c1ccc(NC(=O)OC)cc1,inactive
9,O=C(COC(=O)c1cc(S(=O)(=O)N2CCCCC2)ccc1N1CCOCC1)c1ccc(Cl)cc1,"inconclusive: 10 µM [activator, partial curve]"
10,Fc1ccc2c(c1)C(c1ccncc1)=NNC(c1ccc(Br)cc1)=N2,"inconclusive: 12.6 µM [activator, partial curve]"
11,Cc1ccc(C)c(Oc2coc3cc(OCC(=O)Nc4ccccc4C(C)C)ccc3c2=O)c1,"inconclusive: 15.8 µM [activator, partial curve]"
12,Cc1cc(C)nc(SCc2ccc(C(=O)N/N=C/c3ccccn3)cc2)n1,"inconclusive: 22.4 µM [activator, single point]"
13,COC(=O)N/N=C/c1cn(CC(C)COc2ccccc2)c2ccccc12 (centres undefined),"inconclusive: 20 µM [activator, partial curve]"
14,CN(Cc1ccccc1)c1ccc2nnc(-c3ccccc3)n2n1,"inconclusive: 20 µM [activator, partial curve]"
15,Cc1ccc(C(=O)COc2ccccc2-c2ccccc2)cc1,"inconclusive: 12.6 µM [activator, partial curve]"
16,O=C(Nc1ccc2c(c1)CCC2)c1cccc(S(=O)(=O)Nc2ccccc2Cl)c1,"inconclusive: 15.8 µM [activator, partial curve]"
17,CC(C)(C)c1ccc(CSc2nnc(-c3ccccn3)n2Cc2ccco2)cc1,inactive
18,CCN(CC)c1ccc(/C=C2/SC(=O)N(C(C)C)C2=O)o1,inactive
19,O=C(Nc1sc2c(c1C(=O)O)CCCCC2)c1ccco1,"inconclusive: 10 µM [activator, partial curve]"
20,CCC(=NCc1ccc(Cl)c(Cl)c1)c1nc(-c2ccco2)oc1O,"inconclusive: 31.6 µM [activator, single point]"
21,CC1CC(C)CN(CCCNC(=O)c2csc3c2CCCCC3)C1 (centres undefined),"inconclusive: 7.08 µM [activator, partial curve]"
22,CC1CC(C)CN(C(=O)CCNC(=O)Cn2cnc3ccccc3c2=O)C1 (centres undefined),"inconclusive: 4.47 µM [activator, partial curve]"
23,CC(C)(C)c1ccc(OCC(=O)O)cc1,"inconclusive: 5.01 µM [activator, single point]"

# 5 entries picked at random from those above:
row,Structure (SMILES),Potency
11,Cc1ccc(C)c(Oc2coc3cc(OCC(=O)Nc4ccccc4C(C)C)ccc3c2=O)c1,"inconclusive: 15.8 µM [activator, partial curve]"
7,CCOc1ccccc1N(C)C(=O)c1cc2c(=O)n(CC)c3ccccc3c2s1,"inconclusive: 15.8 µM [activator, partial curve]"
4,O=C(Nc1nnc(-c2ccc3c(c2)CCCC3)o1)c1ccccc1,inactive
10,Fc1ccc2c(c1)C(c1ccncc1)=NNC(c1ccc(Br)cc1)=N2,"inconclusive: 12.6 µM [activator, partial curve]"
18,CCN(CC)c1ccc(/C=C2/SC(=O)N(C(C)C)C2=O)o1,inactive

# (continued)

row,Structure (SMILES),Potency
1,O=C1c2ccccc2C(=O)C1c1ccncc1,inactive
2,COc1ccc(CNc2oc(COc3ccc(Cl)cc3)nc2C#N)cc1,"inconclusive: 14.1 µM [activator, partial curve]"
3,CCOC(=O)c1nn(-c2ccccc2)c(C#N)c1NC(=O)c1nn(CC)cc1Br,"inconclusive: 12.6 µM [activator, partial curve]"
4,Oc1c(Cl)cc(Cl)c2cccnc12,"inconclusive: 20 µM [activator, single point]"
5,Cc1cccc(-n2nc(C)c3c2NC2=C(C(=O)CCC2)C3c2ccccn2)c1 (centres undefined),inactive
6,O=S(=O)(Cc1nnnn1-c1ccccc1)c1ccc(Cl)cc1,inactive
7,COC(=O)c1c(NC(=O)C(=O)NCC2CCCO2)sc2c1CC(C)(C)OC2 (centres undefined),"inconclusive: 14.1 µM [activator, partial curve]"
8,CN1CCN(C(c2ccc(Br)cc2)c2cc(Cl)c3cccnc3c2O)CC1 (centres undefined),"inconclusive: 12.6 µM [activator, partial curve]"
9,Cc1ccc(-c2cc3onc(-c4ccccc4)c3c(=O)n2C)cc1,inactive
10,COc1ccc(NC(=O)NNC(=O)c2ccc(Cl)cc2Cl)cc1OC,inactive
11,S=C(NCCc1ccccc1)N/N=C/c1ccccc1Cl,"inconclusive: 31.6 µM [activator, single point]"
12,Cc1cc(NC(=O)CSc2ccc3nnc(-c4cccs4)n3n2)no1,"inconclusive: 3.55 µM [activator, single point]"
13,COc1ccc(N(Cc2cc(=O)[nH]c3ccccc23)C(=O)CCl)cc1,inactive
14,CCOC(=O)c1cc2c(N)c(C(=O)c3ccc(Br)cc3)sc2[nH]c1=O,inactive
15,O=C(Nc1cccc(-c2ccc(N3CCCCC3)nn2)c1)c1ccc(Br)o1,"inconclusive: 12.6 µM [activator, partial curve]"
16,COC(=O)C1=C(C)NC(C)=C(C(=O)OC(C)(C)CN(C)CCC(c2ccccc2)c2ccccc2)C1c1cccc([N+](=O)[O-])c1 (centres undefined),active: 0.651 µM
17,Cc1oc2ccc(OC(=O)c3cccs3)cc2c1C(=O)OC(C)C,"inconclusive: 5.62 µM [activator, single point]"
18,COCCNC(=O)c1ccc2c3n(nc2c1)-c1ccc(Cl)cc1CO3,inactive
19,O=C(NC(=S)Nc1ccc(Cc2ccncc2)cc1)c1ccccc1,inactive
20,COC(=O)c1cccc(NC(=O)CN(c2ccc3c(c2)OCO3)S(C)(=O)=O)c1C,"inconclusive: 2.82 µM [activator, single point]"
21,Oc1ccccc1CNc1cnc2ccccc2c1,inactive
22,O=C(c1cc(-c2cccs2)nc2ccccc12)N1CCN(c2ccccc2O)CC1,"inconclusive: 28.2 µM [activator, single point]"
23,CC(C)c1ccc(-c2nn(-c3ccccc3)cc2C(=O)NCC2CCCO2)cc1 (centres undefined),"inconclusive: 22.4 µM [activator, single point]"

row,Structure (SMILES),Potency
1,CCOc1ccc(S(=O)(=O)Nc2nc3ccccc3nc2Cl)cc1,"inconclusive: 11.2 µM [activator, partial curve]"
2,Cc1ccc(Nc2nc3ccccc3n3cnnc23)cc1Cl,"inconclusive: 8.91 µM [activator, partial curve]"
3,Cc1cc(C)cc(NC(=S)NCc2ccc3[nH]c4c(c3c2)CCCC4)c1,"inconclusive: 28.2 µM [activator, single point]"
4,CCOc1ccc(S(=O)(=O)N2CCc3cc(OC)c(OC)cc3C2)cc1,"inconclusive: 35.5 µM [activator, single point]"
5,COC(=O)c1ccc2c(=O)n(-c3ccccc3)c(SCN3C(=O)c4ccccc4C3=O)nc2c1,"inconclusive: 31.6 µM [activator, single point]"
6,CC(C)(C)C1CCC2(CC1)C(C#N)=C(SCC(=O)NC1CCCCC1)NC(=O)C2C#N (centres undefined),"inconclusive: 15.8 µM [activator, single point]"
7,Nc1nonc1-n1nnc(C(=O)N/N=C/c2ccoc2)c1CSc1ccc(Cl)cc1,"inconclusive: 35.5 µM [activator, single point]"
8,CC(C)C(=O)Nc1cccc(-c2csc(-c3ccccc3)n2)c1,"inconclusive: 31.6 µM [activator, single point]"
9,CCN1CCN(C(=O)c2ccc(-c3nc4ccccc4s3)s2)CC1,inactive
10,CC1=C(C(=O)OCc2ccccc2)C(/C=C/c2ccccc2)N2C(=O)CCSC2=N1 (centres undefined),"inconclusive: 11.2 µM [activator, partial curve]"
11,COc1ccccc1OCC(=O)Nc1cccc(-c2nnc(-c3ccco3)o2)c1,"inconclusive: 22.4 µM [activator, single point]"
12,COc1ccc(Br)cc1[C@H]1[C@H]2C=CC[C@@H](C)[C@@H]2C(=O)N1Cc1ccccc1,"inconclusive: 6.31 µM [activator, partial curve]"
13,OCCN1CCN(CC(O)COc2ccc3ccccc3c2)CC1 (centres undefined),inactive
14,O=C(OCC1OC(n2cnc3c(N(C(=O)c4ccccc4)C(=O)c4ccccc4)ncnc32)C(O)C1F)c1ccccc1 (centres undefined),inactive
15,CCCNC(=O)c1onc(CSc2ccc(F)cc2)c1C(=O)NCCC,"inconclusive: 11.2 µM [activator, single point]"
16,CC(=O)c1c(C)[nH]c(C(=O)CN2CCN(S(=O)(=O)c3ccccc3[N+](=O)[O-])CC2)c1C,inactive
17,Cc1ccc(-c2c(C(=O)NCc3ccccc3)oc(=O)c3ccccc23)cc1,"inconclusive: 3.55 µM [activator, partial curve]"
18,COc1ccccc1CNS(=O)(=O)c1ccc2c(c1)CC(C)N2C(=O)C1CC1 (centres undefined),"inconclusive: 31.6 µM [activator, single point]"
19,CC1C[C@@]2(NC(=O)NC2=O)C(C)CN1C (some centres undefined),"inconclusive: 28.2 µM [activator, single point]"
20,COc1ccc(Nc2ncc(C(=O)N3CCN(Cc4ccccc4)CC3)c3ccccc23)cc1,"inconclusive: 22.4 µM [activator, single point]"
21,CSC(SC)=C(C(C)=O)C(=O)c1ccc(C)cc1,"inconclusive: 11.2 µM [activator, partial curve]"
22,O=C(Nc1ccc(CN2CCOCC2)cc1)c1ccc(-c2cc(Cl)ccc2Cl)o1,active: 10 µM
23,O=C(Cc1cccs1)Nc1cccc(-c2nc3cc4ccccc4cc3[nH]2)c1,"inconclusive: 11.2 µM [activator, partial curve]"
